# Measurements as given in the supplement of paper PMC10849652.
# Chains of the proteins cited; added tags and fusions are not shown. Lines headed by an entry give the natural chain unless they say otherwise; changes in a name come on top.
# UniProt O94925: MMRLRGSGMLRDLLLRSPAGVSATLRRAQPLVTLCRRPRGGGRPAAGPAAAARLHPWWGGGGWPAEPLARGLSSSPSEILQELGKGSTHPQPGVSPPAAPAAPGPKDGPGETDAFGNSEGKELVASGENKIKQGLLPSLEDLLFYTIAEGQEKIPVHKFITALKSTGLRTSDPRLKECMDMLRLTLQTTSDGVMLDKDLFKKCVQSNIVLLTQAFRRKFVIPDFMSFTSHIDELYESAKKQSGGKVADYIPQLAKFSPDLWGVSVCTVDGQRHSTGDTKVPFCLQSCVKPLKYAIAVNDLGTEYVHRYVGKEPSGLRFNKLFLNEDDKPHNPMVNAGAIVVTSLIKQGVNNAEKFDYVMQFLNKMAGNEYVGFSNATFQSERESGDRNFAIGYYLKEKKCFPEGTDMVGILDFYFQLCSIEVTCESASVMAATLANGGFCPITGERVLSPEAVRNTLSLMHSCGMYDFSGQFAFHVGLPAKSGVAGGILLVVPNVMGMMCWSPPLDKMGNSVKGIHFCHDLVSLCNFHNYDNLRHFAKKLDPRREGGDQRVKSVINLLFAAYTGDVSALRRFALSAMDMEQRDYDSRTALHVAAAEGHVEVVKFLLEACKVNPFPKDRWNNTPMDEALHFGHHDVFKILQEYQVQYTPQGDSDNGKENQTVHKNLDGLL
# UniProt P08754, whole entry, looked up: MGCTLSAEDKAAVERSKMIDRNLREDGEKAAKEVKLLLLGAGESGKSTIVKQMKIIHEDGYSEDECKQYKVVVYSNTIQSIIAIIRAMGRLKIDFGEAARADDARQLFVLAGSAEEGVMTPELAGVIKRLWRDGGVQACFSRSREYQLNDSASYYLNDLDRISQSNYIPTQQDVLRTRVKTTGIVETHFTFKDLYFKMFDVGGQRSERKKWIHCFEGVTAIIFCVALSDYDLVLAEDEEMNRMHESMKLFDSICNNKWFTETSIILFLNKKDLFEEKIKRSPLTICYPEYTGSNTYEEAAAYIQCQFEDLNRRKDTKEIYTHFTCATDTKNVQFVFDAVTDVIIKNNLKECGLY
# UniProt P15586: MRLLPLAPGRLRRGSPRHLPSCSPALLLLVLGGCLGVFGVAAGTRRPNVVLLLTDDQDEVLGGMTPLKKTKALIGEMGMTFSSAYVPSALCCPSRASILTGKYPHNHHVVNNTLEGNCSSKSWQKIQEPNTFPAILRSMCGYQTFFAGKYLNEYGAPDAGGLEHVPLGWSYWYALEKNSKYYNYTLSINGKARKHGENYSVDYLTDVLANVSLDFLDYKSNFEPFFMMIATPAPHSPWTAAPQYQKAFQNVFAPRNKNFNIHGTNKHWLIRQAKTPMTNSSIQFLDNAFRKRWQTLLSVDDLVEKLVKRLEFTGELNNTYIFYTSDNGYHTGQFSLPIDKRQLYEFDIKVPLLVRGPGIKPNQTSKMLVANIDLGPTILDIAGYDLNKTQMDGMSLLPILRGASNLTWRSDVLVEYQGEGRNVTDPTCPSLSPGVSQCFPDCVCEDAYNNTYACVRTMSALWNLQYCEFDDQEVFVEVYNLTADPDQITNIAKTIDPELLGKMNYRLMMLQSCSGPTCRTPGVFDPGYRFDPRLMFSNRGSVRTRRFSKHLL
# UniProt Q8WWB7: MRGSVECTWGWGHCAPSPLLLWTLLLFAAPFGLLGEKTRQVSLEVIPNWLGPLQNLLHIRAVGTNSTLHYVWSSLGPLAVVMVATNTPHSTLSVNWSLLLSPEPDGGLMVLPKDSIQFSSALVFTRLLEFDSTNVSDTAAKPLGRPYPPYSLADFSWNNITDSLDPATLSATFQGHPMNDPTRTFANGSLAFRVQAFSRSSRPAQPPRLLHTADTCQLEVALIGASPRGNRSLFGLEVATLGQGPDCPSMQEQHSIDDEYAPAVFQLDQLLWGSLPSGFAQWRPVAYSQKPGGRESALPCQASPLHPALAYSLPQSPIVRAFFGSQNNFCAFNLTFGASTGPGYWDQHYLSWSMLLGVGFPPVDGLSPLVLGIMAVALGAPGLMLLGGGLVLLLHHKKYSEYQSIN
# UniProt O15228: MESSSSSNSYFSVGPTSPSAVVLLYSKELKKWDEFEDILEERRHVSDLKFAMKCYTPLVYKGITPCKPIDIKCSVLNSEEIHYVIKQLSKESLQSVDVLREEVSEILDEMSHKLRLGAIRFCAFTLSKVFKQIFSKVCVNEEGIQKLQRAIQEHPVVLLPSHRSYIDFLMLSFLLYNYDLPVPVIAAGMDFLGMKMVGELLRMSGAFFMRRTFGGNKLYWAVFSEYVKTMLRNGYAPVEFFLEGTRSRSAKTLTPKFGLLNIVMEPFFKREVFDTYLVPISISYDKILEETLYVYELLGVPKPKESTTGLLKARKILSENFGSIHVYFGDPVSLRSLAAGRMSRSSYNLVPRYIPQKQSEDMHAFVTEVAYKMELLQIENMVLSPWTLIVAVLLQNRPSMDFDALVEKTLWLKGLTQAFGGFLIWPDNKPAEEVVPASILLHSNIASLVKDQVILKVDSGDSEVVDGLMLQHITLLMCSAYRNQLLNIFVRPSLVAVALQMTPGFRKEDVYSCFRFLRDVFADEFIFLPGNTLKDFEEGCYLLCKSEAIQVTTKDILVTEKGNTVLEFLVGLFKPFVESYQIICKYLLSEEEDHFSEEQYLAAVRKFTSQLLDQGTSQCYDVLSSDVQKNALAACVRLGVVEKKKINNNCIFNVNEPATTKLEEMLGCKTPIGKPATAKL
# UniProt Q92917: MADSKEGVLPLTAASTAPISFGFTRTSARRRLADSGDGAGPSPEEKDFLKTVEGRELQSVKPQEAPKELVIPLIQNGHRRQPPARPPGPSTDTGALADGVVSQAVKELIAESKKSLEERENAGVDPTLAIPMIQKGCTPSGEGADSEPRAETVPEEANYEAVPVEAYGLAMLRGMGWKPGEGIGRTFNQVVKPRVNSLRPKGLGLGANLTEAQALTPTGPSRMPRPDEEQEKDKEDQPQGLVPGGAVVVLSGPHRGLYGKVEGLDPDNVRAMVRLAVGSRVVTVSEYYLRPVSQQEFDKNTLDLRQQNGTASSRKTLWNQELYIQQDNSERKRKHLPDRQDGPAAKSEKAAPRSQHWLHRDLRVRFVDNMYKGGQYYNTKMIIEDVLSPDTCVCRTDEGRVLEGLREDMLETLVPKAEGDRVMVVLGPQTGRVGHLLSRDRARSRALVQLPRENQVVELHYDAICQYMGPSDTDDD
# UniProt P15104, whole entry, looked up: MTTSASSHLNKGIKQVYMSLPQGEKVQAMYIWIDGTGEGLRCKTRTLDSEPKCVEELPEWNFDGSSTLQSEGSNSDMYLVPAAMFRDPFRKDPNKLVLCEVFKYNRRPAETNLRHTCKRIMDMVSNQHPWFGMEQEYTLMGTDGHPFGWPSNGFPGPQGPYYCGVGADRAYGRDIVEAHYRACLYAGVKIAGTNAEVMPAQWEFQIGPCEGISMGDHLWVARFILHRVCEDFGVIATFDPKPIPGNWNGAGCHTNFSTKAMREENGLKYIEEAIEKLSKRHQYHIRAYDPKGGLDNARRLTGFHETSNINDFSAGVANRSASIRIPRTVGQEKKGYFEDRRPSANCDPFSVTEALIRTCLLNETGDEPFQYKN
# UniProt P00367: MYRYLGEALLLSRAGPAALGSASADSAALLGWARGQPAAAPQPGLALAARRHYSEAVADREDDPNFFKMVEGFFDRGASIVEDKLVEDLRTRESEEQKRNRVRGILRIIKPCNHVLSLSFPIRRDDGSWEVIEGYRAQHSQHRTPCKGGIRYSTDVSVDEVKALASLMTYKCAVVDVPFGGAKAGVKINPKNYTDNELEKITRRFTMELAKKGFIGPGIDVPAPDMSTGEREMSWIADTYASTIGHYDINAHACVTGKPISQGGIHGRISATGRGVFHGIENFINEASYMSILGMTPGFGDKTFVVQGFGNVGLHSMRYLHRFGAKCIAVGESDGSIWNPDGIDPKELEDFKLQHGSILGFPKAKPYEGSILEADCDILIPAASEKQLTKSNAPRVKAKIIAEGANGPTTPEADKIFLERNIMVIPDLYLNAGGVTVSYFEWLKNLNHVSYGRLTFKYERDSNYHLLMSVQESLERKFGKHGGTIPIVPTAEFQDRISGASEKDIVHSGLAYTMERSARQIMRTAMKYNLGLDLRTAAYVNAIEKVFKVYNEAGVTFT
# UniProt A6NDN3: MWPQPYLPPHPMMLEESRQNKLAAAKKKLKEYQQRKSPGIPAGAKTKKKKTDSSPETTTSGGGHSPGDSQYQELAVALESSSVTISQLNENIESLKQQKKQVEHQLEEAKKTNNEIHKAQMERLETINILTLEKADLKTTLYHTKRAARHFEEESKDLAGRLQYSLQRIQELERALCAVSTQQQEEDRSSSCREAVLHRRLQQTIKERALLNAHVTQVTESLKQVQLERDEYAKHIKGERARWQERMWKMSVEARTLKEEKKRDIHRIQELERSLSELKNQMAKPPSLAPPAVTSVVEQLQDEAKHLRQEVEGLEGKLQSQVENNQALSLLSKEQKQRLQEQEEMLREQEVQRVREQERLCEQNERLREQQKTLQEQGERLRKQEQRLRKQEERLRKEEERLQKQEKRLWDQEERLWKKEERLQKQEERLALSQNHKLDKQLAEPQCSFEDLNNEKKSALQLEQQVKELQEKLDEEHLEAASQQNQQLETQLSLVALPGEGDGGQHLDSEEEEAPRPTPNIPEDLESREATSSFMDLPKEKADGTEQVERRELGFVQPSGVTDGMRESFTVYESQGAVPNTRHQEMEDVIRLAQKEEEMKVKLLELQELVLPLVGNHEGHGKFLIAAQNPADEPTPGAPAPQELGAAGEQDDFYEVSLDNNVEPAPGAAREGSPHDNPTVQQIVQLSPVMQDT
# UniProt Q6ZS86: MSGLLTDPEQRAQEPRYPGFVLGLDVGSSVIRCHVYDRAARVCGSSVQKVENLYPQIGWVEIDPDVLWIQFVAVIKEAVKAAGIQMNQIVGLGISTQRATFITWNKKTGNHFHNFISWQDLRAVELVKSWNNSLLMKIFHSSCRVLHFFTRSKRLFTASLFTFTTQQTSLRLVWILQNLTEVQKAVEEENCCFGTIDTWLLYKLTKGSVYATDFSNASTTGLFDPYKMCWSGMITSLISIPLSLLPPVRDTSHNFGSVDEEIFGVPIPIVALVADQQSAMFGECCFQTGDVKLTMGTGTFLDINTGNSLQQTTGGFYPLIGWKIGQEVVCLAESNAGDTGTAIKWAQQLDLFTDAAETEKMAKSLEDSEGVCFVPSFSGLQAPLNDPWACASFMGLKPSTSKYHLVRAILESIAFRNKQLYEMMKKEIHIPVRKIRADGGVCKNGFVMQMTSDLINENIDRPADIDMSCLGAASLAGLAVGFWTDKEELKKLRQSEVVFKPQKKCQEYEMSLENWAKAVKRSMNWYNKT
# UniProt Q9HCN6: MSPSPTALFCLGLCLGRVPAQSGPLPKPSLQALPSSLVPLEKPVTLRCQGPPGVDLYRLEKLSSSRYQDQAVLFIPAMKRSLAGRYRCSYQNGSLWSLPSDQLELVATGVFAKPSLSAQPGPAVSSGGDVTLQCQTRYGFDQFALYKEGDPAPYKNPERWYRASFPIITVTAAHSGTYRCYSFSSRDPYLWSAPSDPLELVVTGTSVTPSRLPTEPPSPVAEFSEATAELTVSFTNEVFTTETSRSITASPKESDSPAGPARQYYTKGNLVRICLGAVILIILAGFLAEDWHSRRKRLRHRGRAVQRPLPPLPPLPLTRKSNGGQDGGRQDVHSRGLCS
# UniProt Q9HCL2: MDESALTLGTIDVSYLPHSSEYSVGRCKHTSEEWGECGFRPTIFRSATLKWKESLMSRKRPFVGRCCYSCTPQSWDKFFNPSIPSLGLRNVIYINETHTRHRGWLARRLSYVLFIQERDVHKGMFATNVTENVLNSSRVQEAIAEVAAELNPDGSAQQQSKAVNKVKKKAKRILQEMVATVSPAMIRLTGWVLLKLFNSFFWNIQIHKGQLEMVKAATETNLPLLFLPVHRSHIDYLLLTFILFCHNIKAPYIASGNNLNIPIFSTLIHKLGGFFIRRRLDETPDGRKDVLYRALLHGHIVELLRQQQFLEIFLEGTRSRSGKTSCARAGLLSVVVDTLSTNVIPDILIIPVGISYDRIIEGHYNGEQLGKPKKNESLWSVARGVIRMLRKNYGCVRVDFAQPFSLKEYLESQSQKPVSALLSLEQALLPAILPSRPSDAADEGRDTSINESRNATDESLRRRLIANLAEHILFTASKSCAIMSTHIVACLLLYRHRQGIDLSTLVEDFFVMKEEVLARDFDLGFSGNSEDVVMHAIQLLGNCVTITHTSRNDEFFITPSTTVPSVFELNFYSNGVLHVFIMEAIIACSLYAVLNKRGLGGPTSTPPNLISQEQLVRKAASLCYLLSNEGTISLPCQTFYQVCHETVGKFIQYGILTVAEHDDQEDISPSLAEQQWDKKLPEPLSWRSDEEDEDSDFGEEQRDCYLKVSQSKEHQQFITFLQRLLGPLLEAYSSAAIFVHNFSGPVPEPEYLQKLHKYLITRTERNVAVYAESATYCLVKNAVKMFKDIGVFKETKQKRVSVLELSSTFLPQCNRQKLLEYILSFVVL
# This is one part of the list.
# Legend:
# Assay in all cases: log2 fold change, soluble protein after heating vs DMSO (PISA); higher = thermal stabilisation; K562 cells, 10 uM, 30 min; active = over 0.2 and 3.5 SD of the protein, either way, in both replicates (recomputed)
# saracatinib = compound: CN1CCN(CCOc2cc(OC3CCOCC3)c3c(Nc4c(Cl)ccc5c4OCO5)ncnc3c2)CC1 [saracatinib]
# Outline: (§1)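 Values are thermal stability changes relative to control samples and are taken from duplicates. They are stated as log2 fold changes. Before quantification by TMTpro 16plex LC-MS/MS with equalised channel sums, K562 cells at 2×10^6 cells/mL were treated with 10 μM compound for 30 min, heated in aliquots for 3 min across 48°C-58°C, pooled, extracted in PBS with 0.5% NP-40 at 4°C, and centrifuged at 21,000xg for 90 min to give the soluble supernatant.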
# sotrastaurin = compound: CN1CCN(c2nc(C3=C(c4c[nH]c5ccccc45)C(=O)NC3=O)c3ccccc3n2)CC1 [sotrastaurin]
# Outline: as §1
# Tubastatin A = compound: CN1CCc2c(c3ccccc3n2Cc2ccc(C(=O)NO)cc2)C1 [Tubastatin A]
# Outline: as §1
# [1] = compound: CNC(=O)C1=CC=CC=C1NC2=NC(=NC=C2Cl)NC3=C(C=C(C=C3)N4CCOCC4)OC
# Outline: as §1
# defactinib = compound: CNC(=O)c1ccc(Nc2ncc(C(F)(F)F)c(NCc3nccnc3N(C)S(C)(=O)=O)n2)cc1 [defactinib]
# Outline: as §1
# rucaparib = compound: CNCc1ccc(-c2[nH]c3cc(F)cc4c3c2CCNC4=O)cc1 [rucaparib]
# Outline: as §1
# [2] = compound: CNc1nc(-c2ccc3c(N)n[nH]c3c2)cc(N2C[C@@H](C(=O)NC3CCCCC3)CC[C@H]2C)n1
# Outline: as §1
# encorafenib = compound: COC(=O)N[C@@H](C)CNc1nccc(-c2cn(C(C)C)nc2-c2cc(Cl)cc(NS(C)(=O)=O)c2F)n1 [encorafenib]
# Outline: as §1
# [3] = compound: COC(=O)[C@H](CCSC)NC(=O)C1=C(C=C(C=C1)NC[C@H](CS)N)C2=CC=CC=C2
# Outline: as §1
# alvocidib = compound: CN1CC[C@H](c2c(O)cc(O)c3c(=O)cc(-c4ccccc4Cl)oc23)[C@H](O)C1 [alvocidib]
# Outline: as §1
Target,log2 fold change (saracatinib),log2 fold change (sotrastaurin),log2 fold change (Tubastatin A),log2 fold change [1],log2 fold change (defactinib),log2 fold change (rucaparib),log2 fold change [2],log2 fold change (encorafenib),log2 fold change [3],log2 fold change (alvocidib)
GLS isoform 3 (UniProt O94925),inactive: -0.025,inactive: -0.027,inactive: 0.14,inactive: -0.025,inactive: -0.139,inactive: -0.045,inactive: -0.063,inactive: 0.039,inactive: 0,–
GOLPH3 (UniProt Q9H4A6),inactive: -0.016,inactive: -0.046,inactive: 0.028,inactive: 0.022,inactive: -0.064,inactive: -0.064,inactive: 0.013,inactive: 0.047,inactive: -0.044,–
GNL1 (UniProt P36915),inactive: 0.013,inactive: 0.013,inactive: 0.018,inactive: 0.009,inactive: 0.023,inactive: -0.039,inactive: 0.016,inactive: 0.021,inactive: -0.011,–
GNAI3 (UniProt P08754),inactive: 0.063,inactive: -0.011,inactive: 0.046,inactive: 0.093,inactive: -0.041,inactive: -0.009,inactive: 0.025,inactive: -0.004,inactive: -0.003,–
GNS (UniProt P15586),inactive: 0.014,inactive: 0.041,inactive: -0.012,inactive: -0.007,inactive: -0.011,inactive: 0,inactive: -0.034,inactive: 0.009,inactive: -0.009,–
GLMP (UniProt Q8WWB7),inactive: -0.012,inactive: 0.244,inactive: 0.005,–,inactive: -0.149,inactive: 0.123,inactive: 0.034,inactive: -0.312,inactive: 0.046,inactive: 0.205
GNPAT (UniProt O15228),inactive: 0.01,inactive: 0.077,inactive: -0.047,inactive: 0.045,inactive: -0.035,inactive: -0.06,inactive: -0.041,inactive: 0.001,inactive: -0.027,–
GPKOW (UniProt Q92917),inactive: -0.03,inactive: -0.031,inactive: 0.033,inactive: -0.107,inactive: -0.178,inactive: -0.036,inactive: 0.069,inactive: 0.034,inactive: -0.032,–
GLS (UniProt O94925),inactive: 0.039,inactive: -0.023,inactive: 0.021,inactive: -0.031,inactive: -0.167,inactive: 0.002,inactive: -0.092,inactive: 0.017,inactive: -0.093,–
GPAT4 (UniProt Q86UL3),inactive: 0.042,inactive: 0.046,inactive: -0.039,inactive: 0.04,inactive: -0.017,inactive: 0.055,inactive: -0.069,inactive: -0.021,inactive: 0.031,–
GLUL (UniProt P15104),inactive: 0.012,inactive: -0.058,inactive: 0.048,inactive: 0.142,inactive: 0.036,inactive: -0.039,inactive: -0.153,inactive: -0.02,inactive: 0.038,–
GMIP (UniProt Q9P107),inactive: -0.291,inactive: 0.105,inactive: 0.129,inactive: -0.143,–,–,inactive: -0.001,–,–,inactive: 0.054
GLUD1 (UniProt P00367),inactive: 0.161,inactive: 0.14,inactive: -0.04,inactive: 0.096,inactive: 0.041,inactive: -0.099,inactive: 0.089,inactive: -0.056,inactive: 0.002,–
GLUD2 (UniProt P49448),active: 0.305,inactive: 0.056,inactive: -0.016,inactive: 0.051,inactive: 0.008,inactive: 0.003,inactive: 0.178,inactive: -0.117,inactive: -0.042,–
GNAS (UniProt Q5JWF2),inactive: -0.023,inactive: 0.036,inactive: 0.011,inactive: -0.004,inactive: 0.012,inactive: 0.029,inactive: 0.069,inactive: 0.021,inactive: -0.041,–
GLS2 (UniProt Q9UI32),–,–,–,–,–,–,–,–,–,inactive: -0.301
GPD1 (UniProt P21695),inactive: -0.005,inactive: 0.065,inactive: -0.027,inactive: -0.298,inactive: -0.072,–,inactive: 0.05,–,inactive: 0.016,–
GOLGA6B (UniProt A6NDN3),–,inactive: 0.068,–,inactive: -0.066,inactive: -0.211,–,–,–,inactive: -0.475,–
GK5 (UniProt Q6ZS86),inactive: -0.058,–,inactive: -0.183,–,inactive: -0.055,–,inactive: -0.039,–,inactive: -0.091,inactive: -0.019
GP6 isoform 3 (UniProt Q9HCN6),–,–,–,inactive: -0.05,–,–,–,–,–,inactive: -0.038
GPAM (UniProt Q9HCL2),–,inactive: 0.258,inactive: 0.041,inactive: 0.138,–,–,–,–,–,–
GSE1 (UniProt Q14687),inactive: -0.077,–,–,–,inactive: 0.027,–,inactive: -0.014,–,active: -0.498,–
GPAA1 (UniProt E9PLG8),inactive: -0.063,–,inactive: -0.015,–,–,inactive: 0.012,inactive: -0.072,inactive: -0.019,–,inactive: 0.049

# Looked up one by one from the list above:
Target,log2 fold change (saracatinib),log2 fold change (sotrastaurin),log2 fold change (Tubastatin A),log2 fold change [1],log2 fold change (defactinib),log2 fold change (rucaparib),log2 fold change [2],log2 fold change (encorafenib),log2 fold change [3],log2 fold change (alvocidib)
GOLGA6B (UniProt A6NDN3),–,inactive: 0.068,–,inactive: -0.066,inactive: -0.211,–,–,–,inactive: -0.475,–
GPD1 (UniProt P21695),inactive: -0.005,inactive: 0.065,inactive: -0.027,inactive: -0.298,inactive: -0.072,–,inactive: 0.05,–,inactive: 0.016,–
